This passage reports binding results from patent US20100322862A1.

By UniProt entry, the sequences of proteins in these tests, tags left out. Residues count along the entry.
UniProt O14786, residues 22-923: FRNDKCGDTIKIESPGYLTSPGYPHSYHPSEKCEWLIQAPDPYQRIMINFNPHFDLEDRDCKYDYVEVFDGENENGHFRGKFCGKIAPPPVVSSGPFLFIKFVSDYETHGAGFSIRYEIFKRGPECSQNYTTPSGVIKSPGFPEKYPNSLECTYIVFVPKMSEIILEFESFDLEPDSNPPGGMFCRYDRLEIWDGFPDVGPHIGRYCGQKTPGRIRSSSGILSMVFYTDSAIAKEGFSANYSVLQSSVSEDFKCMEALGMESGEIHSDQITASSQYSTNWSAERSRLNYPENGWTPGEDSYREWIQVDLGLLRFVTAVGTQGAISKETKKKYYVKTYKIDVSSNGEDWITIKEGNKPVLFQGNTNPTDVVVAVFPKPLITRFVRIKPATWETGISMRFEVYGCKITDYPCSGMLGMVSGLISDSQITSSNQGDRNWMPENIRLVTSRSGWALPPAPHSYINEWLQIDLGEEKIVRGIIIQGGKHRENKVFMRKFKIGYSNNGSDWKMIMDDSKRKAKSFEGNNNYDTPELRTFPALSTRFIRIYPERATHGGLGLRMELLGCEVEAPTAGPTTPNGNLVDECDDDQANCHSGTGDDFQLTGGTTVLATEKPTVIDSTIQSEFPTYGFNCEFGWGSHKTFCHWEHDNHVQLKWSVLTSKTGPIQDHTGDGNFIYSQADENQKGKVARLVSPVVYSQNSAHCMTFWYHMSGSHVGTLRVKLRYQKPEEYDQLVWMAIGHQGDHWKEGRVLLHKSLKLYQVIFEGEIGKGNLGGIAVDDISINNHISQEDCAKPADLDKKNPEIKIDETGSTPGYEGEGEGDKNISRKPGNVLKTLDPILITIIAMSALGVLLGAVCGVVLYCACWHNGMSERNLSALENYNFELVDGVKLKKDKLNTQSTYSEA

The target in experiment [1] is wild type NRP-1 expressed in M21 melanoma cells (UniProt O14786). As to the kind of experiment: phage binding to M21 melanoma cells transfected with NRP-1.
Experiment [2] deals with NRP-1 (130-kDa protein from PPC-1 tumor extracts) (UniProt O14786). As to the kind of experiment: affinity chromatography of PPC-1 tumor extracts on immobilised RPARPAR, elution with free peptide; confirmed by immunoblotting.

No constants are given. Whether binding was seen depends on the method and setting. Some results given as binding are weak or reduced against the parent protein; the word gives no strength.

On to RPARPAR (peptide, bacteriophage T7, not shown: large carriers) [RPARPAR phage (T7 phage displaying RPARPAR at the C-terminus of the major coat protein gp10)], for which, in experiment [1], the binding entry was “binds”.

In the case of RPARPAR [RPARPAR peptide], the binding result in experiment [2] is given as “binds”.
